Consider 16 molecules from patent US20250179200A1 (UNIVERSITY OF CHICAGO, published 2025).

Chains of the proteins cited; added tags and fusions are not shown. Lines headed by an entry give the natural chain unless they say otherwise; changes in a name come on top. A line that says so, or that is headed by a name, gives the form on record, which may keep a tag or linker. Residues count along the entry.
Growth Hormone Receptor (GHR) immobilized on a high binding plate (P10912, residues 19-264): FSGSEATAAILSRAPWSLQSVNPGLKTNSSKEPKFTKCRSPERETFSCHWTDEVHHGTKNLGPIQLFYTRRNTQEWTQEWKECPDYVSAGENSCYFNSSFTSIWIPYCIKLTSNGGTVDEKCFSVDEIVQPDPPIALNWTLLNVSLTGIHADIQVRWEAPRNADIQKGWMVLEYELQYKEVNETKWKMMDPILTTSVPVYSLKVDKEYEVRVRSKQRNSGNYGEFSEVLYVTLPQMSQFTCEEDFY
GHR-Fc-10× His (human) (P10912, form named): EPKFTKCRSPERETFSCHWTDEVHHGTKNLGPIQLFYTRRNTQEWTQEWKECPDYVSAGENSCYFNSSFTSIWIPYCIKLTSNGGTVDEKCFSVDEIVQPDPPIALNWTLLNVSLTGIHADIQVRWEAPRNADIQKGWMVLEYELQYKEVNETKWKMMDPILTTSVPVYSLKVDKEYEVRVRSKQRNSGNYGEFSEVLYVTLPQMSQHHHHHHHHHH

Substitutions are numbered along the chain they refer to. Results are given in words; binding and its absence hold for the method and conditions named. Some binding calls cover weakened binding; strength is not graded here.

In assay [1] the target is GHR-Fc-10× His (human) (human) (UniProt P10912). The assay can be described thus: SPR, GHR-Fc-10× His on Ni-NTA chip, Fab as analyte.
The target is the same in assay [2]. The assay can be described thus: SPR epitope binning, second Fab injected in equal molar mixture with GHR3 on GHR saturated with GHR3.
Assay [3] addresses Growth Hormone Receptor (GHR) immobilized on a high binding plate (UniProt P10912). As to the kind of experiment: competition ELISA: Fab titrated on plate-bound GHR preincubated with 200 nM GH, anti-human Fab-HRP.
Assay [4] shares this target. As to the kind of experiment: competition ELISA: Fab prebound to plate-bound GHR, challenged with GH 1 to 2000 nM, anti-human Fab-HRP.
Assay [5] shares this target. The assay can be described thus: competition ELISA: Fab prebound to plate-bound GHR, challenged with B2036 up to 1000 nM, anti-human Fab-HRP.

B1: GHR6 Fab (Fab, V domains shown)
VH: EVQLVESGGGLVQPGGSLRLSCAASGFNVYYSSIHWVRQAPGKGLEWVASIYSSYGYTSYADSVKGRFTISADTSKNTAYLQMNSLRAEDTAVYYCARGQWSGLSGYWEYKALDYWGQGTLVTVSS
VL: DIQMTQSPSSLSASVGDRVTITCRASQSVSSAVAWYQQKPGKAPKLLIYSASSLYSGVPSRFSGSRSGTDFTLTISSLQPEDFATYYCQQVGGSSLITFGQGTKVEIKR
notes: Fab
B1: the binding result in assay [1] and in assay [2] was “binds” each time.

B2: GHR14 Fab (Fab, V domains shown)
VH: EVQLVESGGGLVQPGGSLRLSCAASGFNISSSYIHWVRQAPGKGLEWVASISSYYGYTSYADSVKGRFTISADTSKNTAYLQMNSLRAEDTAVYYCARSYGSYYGYYHYWEWYGLDYWGQGTLVTVSS
VL: B1 VL with V91W, G92Q, G93Y, S94W, L96P, I97V
notes: Fab
As for B2, the binding result in assay [1] is on record as “binds”.

B3: GHR15 Fab (Fab, V domains shown)
VH: EVQLVESGGGLVQPGGSLRLSCAASGFNVSSSSIHWVRQAPGKGLEWVASIYSYYGYTSYADSVKGRFTISADTSKNTAYLQMNSLRAEDTAVYYCARSSGYHGWYWNGMDYWGQGTLVTVSS
VL: B1 VL with V91W, G92Y, S94M, I97V
notes: Fab
Regarding B3, the binding entry in assay [1] is “binds”.

B4: GHR2 Fab (Fab, V domains shown)
VH: EVQLVESGGGLVQPGGSLRLSCAASGFNLYYSSIHWVRQAPGKGLEWVAYISPSYGSTSYADSVKGRFTISADTSKNTAYLQMNSLRAEDTAVYYCARYYDYSWPWYWHGGGPAFDYWGQGTLVTVSS
VL: B1 VL with V91Y, G92E, G93E, S94Y, S95P
notes: Fab
Regarding B4, the binding entry in assay [1] is “binds”.

B5: GHR10 Fab (Fab, V domains shown)
VH: EVQLVESGGGLVQPGGSLRLSCAASGFNFSYYSIHWVRQAPGKGLEWVASISSYYGSTSYADSVKGRFTISADTSKNTAYLQMNSLRAEDTAVYYCARTEYSFGMYWAHTGMDYWGQGTLVTVSS
VL: B1 VL with V91F, G92W, G93S, S95E, L96P
notes: Fab
Turning to B5, the binding entry in assay [1] is “binds”.

B6: GHR9 Fab (Fab, V domains shown)
VH: EVQLVESGGGLVQPGGSLRLSCAASGFNVSYSSIHWVRQAPGKGLEWVASISSSYGSTYYADSVKGRFTISADTSKNTAYLQMNSLRAEDTAVYYCARYYDYSWSTYKGIGTGAIDYWGQGTLVTVSS
VL: B1 VL with V91Y, G92W, G93Y, S95Y
notes: Fab
As for B6, the binding entry in assay [1] is given as “binds”.

B7: GHR5 Fab (Fab, V domains shown)
VH: EVQLVESGGGLVQPGGSLRLSCAASGFNVSYYSIHWVRQAPGKGLEWVAYISPSSGSTSYADSVKGRFTISADTSKNTAYLQMNSLRAEDTAVYYCARMYWQGGYSSYWQSYAMDYWGQGTLVTVSS
VL: B1 VL with V91K, G92S, G93Q, S94Y, I97V
notes: Fab
For the molecule B7, the binding entry in assay [1] is “binds”.

B8: GHR_TS10 Fab (Fab, V domains shown)
VH: EVQLVESGGGLVQPGGSLRLSCAASGFNFSSSYIHWVRQAPGKGLEWVAYISPSSGYTSYADSVKGRFTISADTSKNTAYLQMNSLRAEDTAVYYCARQYYGGWYGFGMDYWGQGTLVTVSS
VL: DIQMTQSPSSLSASVGDRVTITCRASQSVSSAVAWYQQKPGKAPKLLIYSASSLYSGVPSRFSGSRSGTDFTLTISSLQPEDFATYYCQQWHSYLITFGQGTKVEIKR
Take B8: the binding result in assay [3], in assay [4] and in assay [5] was “binds” each time.

B9: GHR13 Fab (Fab, V domains shown)
VH: EVQLVESGGGLVQPGGSLRLSCAASGFNVYYSSIHWVRQAPGKGLEWVAYIYPSSGSTSYADSVKGRFTISADTSKNTAYLQMNSLRAEDTAVYYCARSWQWYYPGWEQYGWYGMDYWGQGTLVTVSS
VL: B8 VL with W91S, H92G, S93G, Y94S, I96V
notes: Fab
With B9, the binding result in assay [1] is given as “binds”.

B10: GHR_TS40 Fab (Fab, V domains shown)
VH: EVQLVESGGGLVQPGGSLRLSCAASGFNVSYYYIHWVRQAPGKGLEWVASIYPSSGYTSYADSVKGRFTISADTSKNTAYLQMNSLRAEDTAVYYCARYYWPASYWSGYSALDYWGQGTLVTVSS
VL: B8 VL with W91Y, H92P, S93W, Y94G
B10: the binding entry in assay [3], in assay [4] and in assay [5] was “binds” in each case.

B11: GHR4 Fab (Fab, V domains shown)
VH: EVQLVESGGGLVQPGGSLRLSCAASGFNVYYSYIHWVRQAPGKGLEWVAYISPYSGSTSYADSVKGRFTISADTSKNTAYLQMNSLRAEDTAVYYCARQEWYAFDYWGQGTLVTVSS
VL: B8 VL with W91Y, H92W
notes: Fab; also called FAB4
Turning to B11, the binding entry in assay [1] is recorded as “binds”.

B12: GHR1 Fab (Fab, V domains shown)
VH: EVQLVESGGGLVQPGGSLRLSCAASGFNVSYSSIHWVRQAPGKGLEWVAYIYSSYGSTYYADSVKGRFTISADTSKNTAYLQMNSLRAEDTAVYYCAREYWPYYSQTGGSAMDYWGQGTLVTVSS
VL: B8 VL with W91S, H92M, S93H, Y94P
notes: Synthetic human Fab from phage display, expressed in E. coli
For the molecule B12, in assay [1], the binding entry is given as “binds”.

B13: GHR8 Fab (Fab, V domains shown)
VH: EVQLVESGGGLVQPGGSLRLSCAASGFNISYSSIHWVRQAPGKGLEWVASIYSSYGSTYYADSVKGRFTISADTSKNTAYLQMNSLRAEDTAVYYCARSYIYSQPGFYYDSYALDYWGQGTLVTVSS
VL: B8 VL with W91Y, H92G, Y94W
notes: Fab
For the molecule B13, the binding result in assay [1] is given as “binds”.

B14: GHR7 Fab (Fab, V domains shown)
VH: EVQLVESGGGLVQPGGSLRLSCAASGFNFSYSSIHWVRQAPGKGLEWVAYISSYYGYTSYADSVKGRFTISADTSKNTAYLQMNSLRAEDTAVYYCARLQHPSWYYYQGYHSGMDYWGQGTLVTVSS
VL: B8 VL with W91Y, H92W, Y94S
notes: Fab
Consider B14, for which the binding result in assay [1] is recorded as “binds”.

B15: GHR11 Fab (Fab, V domains shown)
VH: EVQLVESGGGLVQPGGSLRLSCAASGFNLSYYYIHWVRQAPGKGLEWVASIYSSSGYTYYADSVKGRFTISADTSKNTAYLQMNSLRAEDTAVYYCARQYPYSWSSYGFSSGALDYWGQGTLVTVSS
VL: DIQMTQSPSSLSASVGDRVTITCRASQSVSSAVAWYQQKPGKAPKLLIYSASSLYSGVPSRFSGSRSGTDFTLTISSLQPEDFATYYCQQYFAYYSPITFGQGTKVEIKR
notes: Fab
Regarding B15, the binding entry in assay [1] was “binds”.

B16: GHR16 Fab (Fab, V domains shown)
VH: EVQLVESGGGLVQPGGSLRLSCAASGFNFSSSSIHWVRQAPGKGLEWVAYISPYYGSTSYADSVKGRFTISADTSKNTAYLQMNSLRAEDTAVYYCARSWYSTYDYRMHVWHQGGLDYWGQGTLVTVSS
VL: B15 VL with Y91S, F92I, A93S, Y95S, S96Y, P97L
As to B16, the binding result in assay [1] is listed as “binds”.
